## Library screen at single concentrations

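Growth of Mycobacterium tuberculosis over 3 days (7H9 medium with glucose and tyloxapol); the read-out is not stated. Concentration: 500 µM. The record gives no direction; compounds that gave an IC50 in retests scored well above the rest, so higher reads as more growth inhibition. Of about 18,000 compounds tested this way, about 1,400 (7.9%) reached 50% or more in at least one test.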

Results are given as percent effect. How 0% and 100% were set is not recorded. Most values in the screen are low, and negative values occur. The compounds are a random part of those screened.

compound	Percent Effect
CCN1C[C@H](NC(=O)c2cccn2C(C)C)[C@@H](OC)C1	25.6
COc1cc(CCN)c(SC)cc1OC	19.33
CN1CCN(CCCN(C)CC(=O)N(C)C)CC1	2.965
Nc1nc(CCC(=O)NCc2cn3c(n2)SCC3)cs1	0.3351
CN(CC(N)=O)C(=O)c1ccc(-c2ccco2)[nH]c1=O	9.898
CCCN1CCCC(CNC(=O)c2ccn(CC)n2)C1 (configuration not stated)	2.422
COc1cc(CCN)cc(OC)c1O	32.83
Cc1ccccc1OCC(O)CN1CCC[C@@H]1CO (some centres not stated)	52.27
Cc1ccc(NCC(=O)N(C)C)cc1-n1cnnn1	4.617
Cc1cc(C)c(CNC(=O)C2CCCO2)c(=O)[nH]1 (configuration not stated)	26.22
NC(c1cncc(Br)c1)C1CC1 (configuration not stated)	50.37
CN(Cc1ccco1)c1ncnc2c1cnn2CCO	37.25
O=c1[nH]nc(CNc2ccc(Br)cc2)[nH]1	44.26
CCN(CC(N)=O)c1ccc(C(F)(F)F)cn1	-11.7
CC1(NC(=O)c2ccc(F)c(F)c2)CCS(=O)(=O)C1 (configuration not stated)	18.02
COc1cccc(CNc2nc(C(C)C)nn2C)n1	62.63
CSc1cccc(N(C)C(=O)C(N)c2ccccc2)c1 (configuration not stated)	66.3
CNc1cc(C(=O)NCc2cc(C)nn2C)ccn1	5.533
COc1ccc(C(=O)NCc2cnn(C)c2C)o1	0.6876
Cc1nc2ccc(C(=O)NC3C=CS(=O)(=O)C3)cc2o1 (configuration not stated)	6.775
CC1CNCCN1C1CCN(C)CC1 (configuration not stated)	-11.05
CC(C)C(Nc1ccncc1Cl)C(=O)N1CCOCC1 (configuration not stated)	1.369
CCO[C@H]1CN(Cc2cccc(F)c2OC)C[C@@H]1O	7.201
Cc1ccc(F)cc1S(=O)(=O)N1CCN[C@H](C)C1	18.08
Cc1ccc([C@@H](C)O)cc1	2.47
Cc1ccccc1C1CNCCO1 (configuration not stated)	8.78
O=C(C1CCC1)N1C[C@@H](O)[C@H](NCc2cccnc2)C1	7.033
CNC(=O)C1CCCN(c2cccc(F)c2C(C)=O)C1 (configuration not stated)	42.79
CNC(=O)CN(C)C(=O)C(C)(C)C	-12.02
CN(C)C(CNC(=O)c1cnn(C)c1)c1ccsc1 (configuration not stated)	33.95
CCc1noc(Cn2nc(C(F)(F)F)ccc2=O)n1	50.55
Cc1cc(CNC(=O)C2(C)CCN(C)CC2)n(C)n1	-3.178
CSCCC(CO)NC(=O)c1occc1C(C)C (configuration not stated)	60.31
NS(=O)(=O)CCCc1ccccc1	15.19
CCn1nc(C)cc1C(=O)N(C)S(=O)(=O)C(C)C	7.791
OCCCSc1ccncc1NCc1cccc(O)c1	7.002
O=C1CCN(Cc2ccccc2)C2(CC2)C1	37.7
CC(C)CNC(=O)CSc1n[nH]c(-c2ccccn2)n1	13.66
CCc1nc(CCN)sc1C	-9.848
CC(C)(C)CNc1ccc(OCCO)nc1	-82.42
CSc1ccc(OCCn2cnnc2[S+](C)[O-])cc1 (configuration not stated)	26.35
CCn1nnc(NC(=O)Cc2ccc(Cl)cc2)n1	40.17
CC(=O)c1cccc(C(=O)NC(C)c2nc(C)c[nH]2)c1 (configuration not stated)	9.206
CCc1nc(C(C)(C)N)[nH]c(=O)c1C	-1.956
NC1CCCN(C(=O)C2CC2)C1 (configuration not stated)	3.27
NCC(O)c1cccc2ccccc12 (configuration not stated)	29.85
CN(C)S(=O)(=O)CCCN1C[C@H](C2CC2)[C@@H](N)C1	11.07
CC(=O)N(C)C1CCN(CC(=O)N2CCCC2)CC1	-8.159
CCOC1CC(CCNC(=O)N2CCC(CO)CC2)C1 (configuration not stated)	11.36
Fc1ccc(-c2noc(CN3CCSCC3)n2)cc1	-15.38
Cc1cccc(C)c1NC(=O)CCCS(C)(=O)=O	7.251
NC1CCC(=O)c2ccccc21 (configuration not stated)	33.54
Cc1cc(CNS(=O)(=O)N(C)C)ccc1F	31.98
Cc1cccc(N2CCN(C3CC3)CC2)n1	6.122
NC(c1ccccc1)C1(CO)CCOCC1 (configuration not stated)	23.09
COCCCn1c(SC2CCCCNC2=O)n[nH]c1=O (configuration not stated)	4.833
Nc1ncccc1CN1CCCN(C2CCCC2)CC1	-12.62
CCCC(N)CNS(=O)(=O)c1c(C)nn(C)c1C (configuration not stated)	-3.508
Cc1ccc(CCC(C)NC(CO)CO)cc1 (configuration not stated)	39.46
CN(C)CCCNC(=O)c1cccc2cccnc12	19.9
Cn1cc(-c2csc(NC3CCOCC3)n2)cn1	31.05
N#CCCNC(=O)CN1CCN(C2CCCC2)CC1	4.198
O=C(CN1CCCCCC1)NCCCn1ccnn1	2.277
CSCc1noc(CN(C)Cc2cc(C)on2)n1	22.61
CC(C)n1cc(C(=O)NCCN(C)S(C)(=O)=O)cn1	19.75
COCc1cccc(C(=O)Nc2ccncc2)c1	41.14
COc1cc(CNCc2ccccn2)ccc1O	-15.86
O=C(Nc1ncccn1)C1(c2ccccc2)CC1	4.403
CCSCCNC(=O)c1cc(CC)[nH]c(=O)c1	-4.296

8 of the entries, repeated:

With CCSCCNC(=O)c1cc(CC)[nH]c(=O)c1 the screen gave -4.296%.
With CC(=O)c1cccc(C(=O)NC(C)c2nc(C)c[nH]2)c1 (configuration not stated) the screen gave 9.206%.
With Cc1ccc(CCC(C)NC(CO)CO)cc1 (configuration not stated) the screen gave 39.46%.
With Cc1nc2ccc(C(=O)NC3C=CS(=O)(=O)C3)cc2o1 (configuration not stated) the screen gave 6.775%.
With CN(C)S(=O)(=O)CCCN1C[C@H](C2CC2)[C@@H](N)C1 the screen gave 11.07%.
With COc1cc(CNCc2ccccn2)ccc1O the screen gave -15.86%.
With O=c1[nH]nc(CNc2ccc(Br)cc2)[nH]1 the screen gave 44.26%.
With CN(CC(N)=O)C(=O)c1ccc(-c2ccco2)[nH]c1=O the screen gave 9.898%.

Measurements from “University of Dundee, Small-Polar-MMV Screening Library” (2021), ChEMBL document CHEMBL3988442.